Results from PMC9266449, “Dried Blood Spots as Matrix for Evaluation of Valproate Levels and the Immediate and Delayed Metabolomic Changes Induced by Single Valproate Dose Treatment” (International Journal of Molecular Sciences, 2022).

Test system: Sprague-Dawley rats
Assay: GC/MS metabolomic profiling of DBS after single VPA dose
Format: in vivo
Conditions: iv 200 mg/kg, male rats

## CCCC(CCC)C(=O)O [VPA, 2-propyl-pentanoic acid]
0.5 h post-VPA treatment
  Change in 2-hydroxybutyric acid level in DBS versus control: significantly increased
2.5 h post-VPA treatment
  Change in pipecolic acid level in DBS versus control: downregulated
5 h post-VPA treatment, 200 mg/kg
  Change in tetratriacontane level in DBS versus control: upregulated; also recorded: increment
5 h to 8 h post-VPA treatment, 200 mg/kg
  Change in stearic acid level in DBS versus control: upregulated; also recorded: increment

Entries after “also recorded” stand apart in the source; their conditions may differ.
